Source: patent EP4725966A1, “HUMAN EPIDERMAL GROWTH FACTOR 3 ANTIBODY, PREPARATION METHOD THEREFOR, AND USE THEREOF” (priority 2023, dated 2024)
Residue numbers refer to the chain shown, from its start. Names may count otherwise. Results are given in words; binding and its absence hold for the method and conditions named. Some binding calls cover weakened binding; strength is not graded here. One block for each binder: values may come before it.

Chains of the proteins cited; added tags and fusions are not shown. Lines headed by an entry give the natural chain unless they say otherwise; changes in a name come on top. A line that says so, or that is headed by a name, gives the form on record, which may keep a tag or linker.
cynomolgus HER3-ECD-His (G7PIG5, form named): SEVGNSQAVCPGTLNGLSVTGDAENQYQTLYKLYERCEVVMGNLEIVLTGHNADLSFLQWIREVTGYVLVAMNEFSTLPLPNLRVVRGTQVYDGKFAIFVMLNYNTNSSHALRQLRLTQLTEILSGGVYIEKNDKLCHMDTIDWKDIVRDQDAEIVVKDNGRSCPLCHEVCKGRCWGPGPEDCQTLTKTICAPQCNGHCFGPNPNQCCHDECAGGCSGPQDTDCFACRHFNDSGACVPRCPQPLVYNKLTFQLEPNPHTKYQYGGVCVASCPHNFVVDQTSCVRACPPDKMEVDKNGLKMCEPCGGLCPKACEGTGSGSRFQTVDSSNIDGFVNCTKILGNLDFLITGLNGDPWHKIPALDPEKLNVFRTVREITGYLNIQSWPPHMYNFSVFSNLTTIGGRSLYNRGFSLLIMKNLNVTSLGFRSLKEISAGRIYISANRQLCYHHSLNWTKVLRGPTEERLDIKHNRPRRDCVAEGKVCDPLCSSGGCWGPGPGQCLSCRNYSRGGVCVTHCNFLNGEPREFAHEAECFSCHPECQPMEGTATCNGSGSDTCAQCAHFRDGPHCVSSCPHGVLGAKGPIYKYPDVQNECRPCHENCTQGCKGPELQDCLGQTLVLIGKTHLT
cynomolgus HER3 on CHO cells (G7PIG5, form named): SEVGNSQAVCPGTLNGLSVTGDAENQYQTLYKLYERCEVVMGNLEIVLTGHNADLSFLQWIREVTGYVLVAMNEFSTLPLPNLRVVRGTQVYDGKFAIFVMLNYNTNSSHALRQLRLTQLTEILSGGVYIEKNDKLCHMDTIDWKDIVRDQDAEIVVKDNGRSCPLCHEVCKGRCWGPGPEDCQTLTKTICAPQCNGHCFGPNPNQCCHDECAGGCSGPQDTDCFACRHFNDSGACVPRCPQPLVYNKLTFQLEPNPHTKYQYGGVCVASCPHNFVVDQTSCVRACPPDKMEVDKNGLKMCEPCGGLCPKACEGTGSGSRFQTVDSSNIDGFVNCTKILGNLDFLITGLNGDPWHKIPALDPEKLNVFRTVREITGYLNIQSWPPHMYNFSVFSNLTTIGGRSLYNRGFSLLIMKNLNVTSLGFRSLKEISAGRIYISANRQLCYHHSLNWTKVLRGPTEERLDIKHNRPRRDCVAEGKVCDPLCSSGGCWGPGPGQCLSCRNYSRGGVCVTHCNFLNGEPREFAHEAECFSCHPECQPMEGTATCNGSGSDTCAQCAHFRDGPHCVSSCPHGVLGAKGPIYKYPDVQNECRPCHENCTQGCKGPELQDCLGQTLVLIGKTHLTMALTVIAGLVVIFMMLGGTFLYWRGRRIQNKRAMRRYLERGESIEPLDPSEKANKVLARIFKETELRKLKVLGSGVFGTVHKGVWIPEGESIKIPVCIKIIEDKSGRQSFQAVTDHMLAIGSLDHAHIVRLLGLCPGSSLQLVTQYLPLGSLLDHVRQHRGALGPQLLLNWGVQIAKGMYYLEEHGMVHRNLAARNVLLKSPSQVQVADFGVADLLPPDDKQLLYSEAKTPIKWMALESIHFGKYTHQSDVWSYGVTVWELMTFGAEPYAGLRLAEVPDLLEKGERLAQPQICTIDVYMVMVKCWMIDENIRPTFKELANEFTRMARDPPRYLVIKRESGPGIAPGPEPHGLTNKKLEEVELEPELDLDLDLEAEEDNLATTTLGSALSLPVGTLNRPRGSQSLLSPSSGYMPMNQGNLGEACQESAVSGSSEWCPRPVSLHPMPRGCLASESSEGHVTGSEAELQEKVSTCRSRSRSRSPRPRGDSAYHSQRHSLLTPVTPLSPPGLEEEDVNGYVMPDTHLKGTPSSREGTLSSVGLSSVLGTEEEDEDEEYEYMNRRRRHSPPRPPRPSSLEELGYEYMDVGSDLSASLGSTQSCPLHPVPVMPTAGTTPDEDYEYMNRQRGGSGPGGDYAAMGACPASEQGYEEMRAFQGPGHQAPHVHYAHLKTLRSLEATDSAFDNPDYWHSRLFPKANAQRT

Legend:
[1] = molecular target: cynomolgus HER3-ECD-His (cynomolgus monkey) (UniProt G7PIG5); experiment: ELISA on coated cyno HER3-ECD-His
[2] = molecular target: cynomolgus HER3 on CHO cells (cynomolgus monkey) (UniProt G7PIG5); experiment: FACS on CHO cells overexpressing cynomolgus monkey HER3
[3] = molecular target: cynomolgus HER3-ECD-His (cynomolgus monkey) (UniProt G7PIG5); experiment: ELISA on coated cynomolgus HER3-ECD-His

B2: cHE6-G1W (antibody, human IgG1, V domains shown, not shown: a dimerising Fc or GST)
VH: EVQLQQSGPDLVKPGTSVKMSCKASGYTFTDYYMHWVRQSHGKSLEWIGYINPNNGDAIYNQKFKGKATLTVNKSSTTAYMALRSLTSEDSAVYFCATYDYGGDFYFDVWGTGTTVTVSS
VL: DIELTQSPALMSASPGEKVTMTCSASSSVSYMYWYQQKPRSSPKPWIYLTSNLASGVPARFSGSGSGTSYSLTISSMEAEDAATYYCQQWSRNPLTFGAGTKLELKR
binding [3]: binds

B4: cHE4-G1W (antibody, human IgG1, V domains shown, not shown: a dimerising Fc or GST)
VH: EVQLVESGGGLVKPGGSLKLSCAASGFTFSSYVMSWVRQTPEKRLEWVATISDGDSSTYYPDNVKGRFTISRDNAKNNLFLQMSHLKSEDTAMYFCARDKGHGYDEGAFVYWGQGTLVTVSA
VL: DIQMTQSPASLSASVEETVTITCRASENIYSYLAWYQQKQGKSPQLLVYNAKTLAEGVPSRFSGSGSGTEFSLKINSLQPEDFGSYYCQNHYGTPYTFGGGTKLEIKQ
binding [1]: binds
binding [2]: binds

The next lines start with the values.

binding [1]: binds
binding [2]: binds
B1: hHE4-G1W (antibody, human IgG1, V domains shown, not shown: a dimerising Fc or GST)
VH: QVQLVESGGGLVKPGGSLRLSCAASGFTFSSYVMSWVRQAPGKGLEWVATISDGDSSTYYADSVKGRFTISRDNAKNSLYLQMNSLRAEDTAVYYCARDKGHGYDEGAFVYWGQGTLVTVSS
VL: DIQMTQSPSSLSASVGDRVTITCRASENIYSYLAWYQQKPGKAPKLLIYNAKTLAEGVPSRFSGSGSGTDFTLTISSLQPEDFATYYCQNHYGTPYTFGQGTKLEIKR

binding [3]: binds
B3: cHE7-G1W (antibody, human IgG1, V domains shown, not shown: a dimerising Fc or GST)
VH: B2 VH with N73D
VL: B2 VL
